In publication PMC2852408:
These are yes or no findings as the source states them, for the method shown.

Amino acid sequences for entries named in this document (tags omitted). Residues count along the entry.
UniProt P03407, residues 2-210: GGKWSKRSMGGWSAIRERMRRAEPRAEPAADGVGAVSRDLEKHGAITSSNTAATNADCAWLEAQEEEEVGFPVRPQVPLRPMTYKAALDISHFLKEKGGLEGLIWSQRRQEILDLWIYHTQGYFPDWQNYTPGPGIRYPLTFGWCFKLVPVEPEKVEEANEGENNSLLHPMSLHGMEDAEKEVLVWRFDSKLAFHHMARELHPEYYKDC

Target: N-myristoylated HIV-1 Nef protein (isolate SF2) (HIV-1 isolate SF2) (UniProt P03407)
Assay: SEC; preparative HiLoad 16/60 Superdex 75, 20 mM Tris-HCl pH 8.0, 150 mM NaCl, 15 mM β-mercaptoethanol, 10°C, 1 ml/min; final purification step; sizes estimated from a calibration with low molecular weight proteins; both purified

Q: How did the binding turn out when “N-myristoylated HIV-1 Nef protein (isolate SF2) (from UniProt P03407 2-210)” was run?
A: no binding
